Measurements published in the supplement of paper PMC3334620.
In all, about 33,000 sequences were measured (“E-score (-0.5 to 0.5)”: median about -0.016, highest 2% from about 0.3 on). Some of the results follow.

What follows are sequences tested against T1, Yer184c (UniProt P39961) (assay: PBM E-score (8-mer binding enrichment) (E-score (-0.5 to 0.5)); higher = stronger / more preferred TF binding). Conditions: protein concentration: 100 nM; construct: GST-full length.
T1 sequence: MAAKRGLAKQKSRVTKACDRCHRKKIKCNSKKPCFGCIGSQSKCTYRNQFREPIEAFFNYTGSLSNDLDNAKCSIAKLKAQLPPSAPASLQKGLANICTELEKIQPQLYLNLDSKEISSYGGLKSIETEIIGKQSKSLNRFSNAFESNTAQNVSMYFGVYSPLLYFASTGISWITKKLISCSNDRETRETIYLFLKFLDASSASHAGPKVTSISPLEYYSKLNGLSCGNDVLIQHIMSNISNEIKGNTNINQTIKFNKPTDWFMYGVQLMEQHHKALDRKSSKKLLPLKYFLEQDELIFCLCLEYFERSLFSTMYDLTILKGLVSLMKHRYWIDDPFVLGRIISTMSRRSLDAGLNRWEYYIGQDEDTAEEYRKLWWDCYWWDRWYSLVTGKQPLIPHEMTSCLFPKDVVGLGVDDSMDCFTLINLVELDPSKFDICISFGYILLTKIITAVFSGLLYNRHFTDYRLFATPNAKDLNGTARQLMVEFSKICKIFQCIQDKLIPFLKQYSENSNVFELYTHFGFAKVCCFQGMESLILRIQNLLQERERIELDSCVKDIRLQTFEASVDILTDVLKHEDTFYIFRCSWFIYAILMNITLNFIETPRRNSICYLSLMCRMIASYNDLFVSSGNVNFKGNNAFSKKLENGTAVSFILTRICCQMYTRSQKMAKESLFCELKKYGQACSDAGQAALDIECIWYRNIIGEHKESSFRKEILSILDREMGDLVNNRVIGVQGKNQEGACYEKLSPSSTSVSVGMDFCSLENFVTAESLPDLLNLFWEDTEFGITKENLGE
Outline: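 Each ungapped eight-base word and its reverse complement, pooled, received an E-score from the Universal PBM Analysis Suite. Underlying scans, normalised with masliner, recorded fluorescent anti-GST bound to GST-tagged yeast transcription factors. These were applied at about 100-200 nM to universal all-10-mer Agilent arrays double-stranded by primer extension.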

Sequence	PBM E-score
AGGGACTC	-0.235
TGATCGAA	0.086
GTCGGCGA	0.134
CAGCTCAG	-0.321
AATGGTGT	0.00115
CCTGTCCC	-0.0502
ATATTTCC	0.177
TATGCCGA	0.28
ATGTAGTC	0.01
CACTACAG	0.149
GGTAACCA	-0.155
CGGAGTAC	0.0421
GCTTTGAA	0.0482
TGATCCCA	-0.0966
ATTGTGGA	-0.0507
CGTGGAAC	-0.0508
ACGTGAAC	-0.128
CAGATGCC	-0.144
CCATTCAG	0.0599
GACGGGGA	-0.153
CGCGGGCC	0.126
AGGTCCTA	-0.191
GCTTGGTA	-0.139
CATGGTAC	-0.223
GGATGGGA	-0.218

Part of the list above, as comma-separated lines:
Sequence,PBM E-score
CAGCTCAG,-0.321
GCTTTGAA,0.0482

Further entries.

Sequence	PBM E-score
AAAAGCCA	0.235
CCCGCAGG	-0.136
TAGTACAA	0.0477
CCCGTGAG	0.00384
CTGATCAC	-0.176
AAGAACGA	0.138
CACTTCTA	-0.133
CATCGGGG	-0.161
AAAGGCTG	-0.153
TCGGTACA	0.143
CGCACTTA	0.114
ACGTCAGG	-0.268
GGCGCGAC	0.133
AGAAAGTA	0.131
CCGTGCAC	-0.0231
AAATGCCA	0.0215
ACGTCAAG	-0.124
AAGGCACA	0.112
GGTCATAA	0.17
CCTCCCCC	-0.445
GTGCTCAA	0.0765
CATCGAGG	-0.158
AGTGCCCC	-0.299
ACCCACTA	0.0867
TAGGGTAA	0.0891

Sequence	PBM E-score
CGCCATTC	0.0678
ATCATGAT	0.22
ACGTGAAA	0.0976
AGCGTACC	-0.151
CCCGAATC	0.104
TCGCCTCA	0.0662
GTATGCGA	0.13
AATCAATC	0.0212
CTCCGTTA	0.175
GATGTTAA	-0.0626
ACAGATAA	0.00025
ACGTGTAA	-0.00799
AAGCGCAG	0.0135
CAAGGACC	-0.0359
ATCCTCCC	-0.163
CATTACCA	-0.0623
AGGCGGGG	-0.197
TCCCAGAA	-0.115
TCTCTCCA	-0.0609
CCTTACTA	-0.0138
ACACTGTA	-0.076
ATTATTTA	0.292
ATATTCGA	-0.0655
ATTCCTGA	-0.0117
AAATGACA	-0.0662

Sequence	PBM E-score
CTGCTACA	0.099
CGCGGAGA	0.308
CCGTGTCA	0.168
TCGACTAA	0.0483
AGGTACTA	0.00502
CAAACTTC	0.077
CCCTGGGC	-0.252
CCGGGGCC	0.238
CCCCCCCC	-0.482
TCGAGACA	-0.0512
CATGACTA	-0.155
AATTAATG	0.22
ACCTATCC	-0.00171
CACTTAGC	-0.108
ACTTGTGG	-0.0585
CCTGTTCA	-0.112
AAATTTTC	0.223
AAGGATCG	0.066
CAAGGAGC	-0.245
CCCACAAG	-0.0376
CCGTAGTC	0.0894
GAATGAGC	-0.0539
GAGCTGGC	-0.143
GAGGACGC	-0.0257
ATTGTGGC	-0.0356

Sequence	PBM E-score
AAACGACC	-0.0302
AAACCTCA	0.102
GCATGAGC	-0.142
CGTCCAGC	-0.0398
ACACAGGA	-0.0227
AAAACAGC	0.101
CCCCGGTA	0.0232
CACCCCCC	-0.403
AGTATCCG	0.332
ATATCCGA	0.343
ACGGAGTC	0.0797
AACCCTAG	-0.0513
TGTCGCAA	0.0444
GTCCGATA	0.234
CACGGACC	0.192
ATTTAAGG	0.0545
TGAGGGAA	-0.16
AATCATGG	-0.0724
AATAGTCA	0.125
AGCAGGCC	-0.0824
AACGTCTC	0.0227
CTACGCTA	-0.166
GCTCCAAA	-0.0747
ATCTCCGG	0.435
ATTAATAA	0.254

Sequence	PBM E-score
ATCCTATG	-0.0991
AACGAGCA	-0.146
TACACGTA	-0.106
AATGAGGT	-0.0317
CCCTACAC	-0.0486
CGTCATCA	-0.122
ATAATAGC	0.0256
CAACGCAC	-0.0898
CTAGTCTC	-0.174
ATCTCGAA	0.103
ATTTCTGG	-0.0378
GGAGGATA	0.00576
CTGTGAGC	-0.0633
CTCTATAC	-0.0989
AGCGCTAA	0.155
AAGTTAAG	-0.0719
ATTAGTGG	0.0905
ACCGTTTA	0.121
AGACCTAA	-0.106
CAATCCCC	-0.0444
TCTAGAAA	0.123
TAATACGA	0.0735
AGTCTACA	-0.185
CAACTGTG	-0.0301
AGGGGGCG	-0.204

Sequence	PBM E-score
CTCCAACA	-0.035
CATACGAC	-0.111
ATACTCAA	0.125
CATTAGGC	-0.164
AGTTCAAC	0.102
CATGCCGA	0.336
ATGCAGTG	-0.0888
AATTCGCT	0.128
AGCGTGAG	-0.284
ACCTTCCA	-0.103
AGGGCTTA	-0.164
ACGACCTA	-0.04
GGACTCCC	-0.238
AAATACAG	-0.0617
GATATGAC	0.0731
AATGTGGT	-0.114
CGGACTCA	0.186
TAACAAGA	0.126
AATAACCC	0.12
TATAGATA	0.0313
CTGGGTCA	-0.101
ATTCAACG	0.166
ATTGTAAA	0.232
ACCTATAC	-0.0907
ATGGACTC	-0.162

Sequence	PBM E-score
AGGGGCTA	-0.215
CGTCACTC	-0.143
TCACGCAA	0.209
CGTGCCAA	-0.0991
AGTGGTGG	-0.257
GAGCTGTA	-0.104
GGCGGCAC	0.0696
CCCTGTTA	0.0846
CATGTGCG	0.0401
AAATAAAT	0.34
AGACTAAC	-0.00053
ACCGTAAC	0.0104
AACCAGAT	0.053
GGGAGTTA	-0.105
CGGACCAA	0.343
CGGGTCTC	-0.105
TGCTCGAA	-0.0396
ATAGAATG	0.0303
CGCGAGCA	-0.0911
CCCTAAAC	-0.139
GTTTCTGA	0.123
AGTTTTCG	0.145
ATACTTAG	0.0154
GGCCTGCA	-0.324
GGGGCAAC	-0.244

Looked up one by one from the list above (5):
Sequence	PBM E-score
AGGGGCTA	-0.215
AAATAAAT	0.34
GAGCTGTA	-0.104
CATGTGCG	0.0401
GGCCTGCA	-0.324

Further records follow:

Sequence	PBM E-score
CCCTCATA	-0.288
CTAAACGC	0.0164
TACCACCA	-0.0488
ATTTCTGA	-0.0713
GCATGGGC	-0.154
AAGCCCCC	-0.281
AAGCGGAC	0.035
ATCGGGAG	0.018
ATTCGCTG	0.0621
AACCGCTT	0.0486
GACCGCGC	0.031
CGAGAAAC	0.0821
ATCGACAC	-0.151
ACGGTGAC	-0.153
CTTCACAA	-0.0692
ACAATGAG	-0.147
CCACGCTC	-0.246
GCGAAGTA	0.00472
ACCGGGGC	0.0386
CACGGTGG	-0.254
CTGCCGAC	0.0291
ACATAAAA	0.0778
AAATCAGA	0.137
CCCCGGAA	0.151
CAACCTGG	-0.079

Sequence	PBM E-score
CCTACCCC	-0.313
ATCTTTCG	0.00629
AACAGTGG	-0.158
GATAGTAC	0.0651
GTCTTTCA	-0.0723
ACCAATCA	0.0919
ACGTTTGC	-0.15
ACAGACAT	0.106
TACCATGA	-0.101
AGGGCCCG	0.0448
CTGATAAG	0.0801
CAATTAGC	0.0727
CCGTCATA	0.177
ACACTTTA	-0.0239
ACGTCGAT	0.0875
ACTAACTC	-0.00452
ACTTGTCT	0.0749
AGACGGGA	-0.0825
ATTCTCCA	0.0664
CCCCCACA	-0.414
CCACGCCC	-0.156
CCCCCAAC	-0.258
GTAGCAGA	0.123
ACCCCGCG	-0.119
AAGGAAGC	-0.178

Sequence	PBM E-score
TAGAACCA	-0.0841
GACGCCAC	-0.183
ATCGGACC	0.26
GTGCTGGA	-0.136
AGAGGTGC	-0.173
CTAGATGA	-0.159
CAGGCACA	-0.349
GAGGTTTA	0.114
GTAATAAC	0.00949
GCGACCGC	-0.0061
ACGCTAAC	-0.0394
ATGCCGGC	0.399
GCAAGATA	0.0733
CCTGTGGA	-0.268
CCTCAAAG	-0.14
AGCAGTGA	0.0499
AGGGTCGA	-0.0516
CCGTTTAG	0.16
AACTGTCT	-0.161
ATGGTGGA	-0.248
GCTGGTCA	-0.13
ATATGCAG	-0.171
AAGCGTTA	-0.22
ATTTAGAG	0.141
GCCCTTCC	-0.118

Sequence	PBM E-score
CAATTTGC	-0.0817
ACCTCAGT	-0.0185
AGTGAGTC	-0.189
GCTGGGAA	-0.0548
ATCTCTCA	0.0484
TAAGTGTA	-0.0488
CGCACCCC	-0.24
TTAGCCAA	-0.0891
TAACAGAA	0.236
CGTAACGA	-0.133
CGTTCGCA	-0.148
CCGGGTAG	0.147
ACTGCGGC	0.0262
CATTTTGA	-0.00114
CGACCCCG	-0.0259
CGCTTAAA	0.166
AGACTACG	-0.185
GAGGCTCA	-0.229
GCATACAC	-0.0811
AAATATAG	0.189
CCTTTATC	-0.0712
CTCCCAGC	-0.0231
TAAGGATA	0.0487
ATTATTCA	0.19
CACAACTA	0.223

Sequence	PBM E-score
ACGGCCAC	0.154
ATGGTTGA	-0.0763
CGCGTGGC	-0.0105
AATTCAGG	0.0718
CTCACAAA	0.164
GGTGCTAA	0.0611
AATCAATG	0.205
GTGTGAGA	-0.0444
AATCTACG	0.0211
CAGTGTAC	-0.206
TAACAATA	0.158
CGGTTGCC	0.235
CGGAATAG	0.253
TATCTTCA	0.0497
AATGTTAG	-0.0238
GCTCCTGA	0.00627
CACAAGCG	-0.247
GAGAGAAC	-0.00697
ACTGGAAT	-0.12
CGCAGGGC	0.0116
CATAATAC	0.00125
ATTCTAGC	0.0432
CAGATATG	-0.146
TCAAAGAA	0.00416
GTGGGTTA	-0.136

Sequence	PBM E-score
GCATTGGA	-0.0251
GCCATGCC	-0.133
GAAGGGTA	-0.0715
ATACTAAT	0.198
CCAACAAC	-0.0919
AAGCGCCG	0.373
GATCTTGA	0.0911
GGACGAAA	0.182
CCTCTACA	-0.108
AAAGTTGA	0.0216
ATGTTTGG	0.101
AGGCTCAC	-0.273
CTTCGGAA	0.394
GACCCCCC	-0.188
ATACTTCG	0.0948
AGCATTTC	0.087
CACTTAAA	0.111
TAAAAGCA	0.06
AGAATAAT	0.0179

Rewritten in CSV form: part of the list above
Sequence,PBM E-score
CAACCTGG,-0.079
CCTACCCC,-0.313
ATCTTTCG,0.00629
AACAGTGG,-0.158
